Test results taken from PMC5895054.
Results are given in words; binding and its absence hold for the method and conditions named. In cells and extracts the contact can be indirect. Some entries that bind do so weakly or less than the wild type.

Sequences of proteins named here, by UniProt entry; tags and fusion partners are left off. Residues count along the entry.
UniProt Q9XF23: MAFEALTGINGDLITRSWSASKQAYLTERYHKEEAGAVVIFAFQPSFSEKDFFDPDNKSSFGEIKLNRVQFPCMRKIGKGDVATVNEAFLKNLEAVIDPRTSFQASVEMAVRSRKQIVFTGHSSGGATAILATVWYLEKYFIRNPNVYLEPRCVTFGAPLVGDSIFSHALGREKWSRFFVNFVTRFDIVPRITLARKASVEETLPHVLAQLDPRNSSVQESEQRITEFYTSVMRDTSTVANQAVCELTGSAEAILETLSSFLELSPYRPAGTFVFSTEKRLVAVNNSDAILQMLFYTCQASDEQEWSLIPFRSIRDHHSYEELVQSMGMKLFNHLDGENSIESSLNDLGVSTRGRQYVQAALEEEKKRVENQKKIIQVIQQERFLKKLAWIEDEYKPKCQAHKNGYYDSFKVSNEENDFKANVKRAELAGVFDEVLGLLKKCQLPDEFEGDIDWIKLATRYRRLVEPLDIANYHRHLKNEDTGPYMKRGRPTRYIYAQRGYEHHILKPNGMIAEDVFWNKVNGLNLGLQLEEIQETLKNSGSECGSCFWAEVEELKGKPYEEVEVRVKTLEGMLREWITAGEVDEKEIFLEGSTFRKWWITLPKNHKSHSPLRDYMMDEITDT
HA-AvrRps4 N-terminus (Q52432, residues 1-133): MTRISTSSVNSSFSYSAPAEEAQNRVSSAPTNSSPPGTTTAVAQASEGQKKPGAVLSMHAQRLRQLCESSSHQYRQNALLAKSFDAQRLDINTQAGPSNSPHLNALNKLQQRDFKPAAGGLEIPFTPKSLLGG
HA-AvrRps4 C-terminus (Q52432, residues 134-220): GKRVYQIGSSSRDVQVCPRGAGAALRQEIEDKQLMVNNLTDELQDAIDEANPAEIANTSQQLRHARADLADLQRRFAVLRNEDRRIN

Tests used:
His-T7-EDS1 = His-T7-EDS1 (UniProt Q9XF23); experiment: pull-down; nickel purification: His-T7-EDS1 and a GST-AvrRps4 construct co-expressed in E. coli BL21(DE3); lysate in 50 mM sodium phosphate, 300 mM NaCl, 20 mM imidazole, pH 7.4 passed over nickel beads, washed with 20-200 mM imidazole, eluted with 250 mM imidazole at 4°C; immunoblot
[1] = target: GST-AvrRps4^C (Pseudomonas syringae pv. pisi) (UniProt Q52432); experiment: pull-down; GST purification: lysate with the GST protein bound to the GST column in TBS, 1 hr at 4°C, washed with 100x column volume; His-T7-EDS1 lysate (2x dilution) added, 1 hr at 4°C; washed; eluted with 10 mM glutathione; immunoblot; only the target purified
[2] = target: GST-AvrRps4^N (Pseudomonas syringae pv. pisi) (UniProt Q52432); experiment: as above
[3] = target: AvrRps4^C-GFP (Pseudomonas syringae pv. pisi) (UniProt Q52432); experiment: co-IP; microsomal Myc-EDS1 with GFP-tagged AvrRps4 fragments or GFP with an ER retention signal, expressed in N. benthamiana; which partner was precipitated is not told
[4] = target: GFP-AvrRps4^N (Pseudomonas syringae pv. pisi) (UniProt Q52432); experiment: as above
[5] = target: HA-AvrRps4 C-terminus (Pseudomonas syringae pv. pisi) (UniProt Q52432); experiment: co-IP; Myc-EDS1 and HA-AvrRps4 fragments co-expressed in N. benthamiana; microsomal fraction (100,000 x g pellet) resuspended in buffer H (50 mM HEPES pH 7.5, 250 mM sucrose, 15 mM EDTA, 5% glycerol, 3 mM DTT) with 1% NP-40; HA-conjugated beads, 4°C, 1 hour; washed with buffer H with 0.2% NP-40
[6] = target: HA-AvrRps4 N-terminus (Pseudomonas syringae pv. pisi) (UniProt Q52432); experiment: as above

GST-AvrRps4^C (from UniProt Q52432 134-220) (domain or fragment)
binding (His-T7-EDS1): binds

GST-AvrRps4^N (from UniProt Q52432 1-133) (domain or fragment)
binding (His-T7-EDS1): binds

His-T7-EDS1 (from UniProt Q9XF23 1-623)
binding [1]: binds | binding [2]: binds

Myc-EDS1 (ENHANCED DISEASE SUSCEPTIBILITY1) (from UniProt Q9XF23 1-623)
binding [3]: binds | binding [4]: binds | binding [5]: binds | binding [6]: binds
